Experimental findings from article PMC9663503, “Independently evolved viral effectors convergently suppress DELLA protein SLR1-mediated broad-spectrum antiviral immunity in rice” (Nature Communications, 2022) are described below.

Amino acid sequences for entries named in this document (tags omitted).
UniProt Q336P5: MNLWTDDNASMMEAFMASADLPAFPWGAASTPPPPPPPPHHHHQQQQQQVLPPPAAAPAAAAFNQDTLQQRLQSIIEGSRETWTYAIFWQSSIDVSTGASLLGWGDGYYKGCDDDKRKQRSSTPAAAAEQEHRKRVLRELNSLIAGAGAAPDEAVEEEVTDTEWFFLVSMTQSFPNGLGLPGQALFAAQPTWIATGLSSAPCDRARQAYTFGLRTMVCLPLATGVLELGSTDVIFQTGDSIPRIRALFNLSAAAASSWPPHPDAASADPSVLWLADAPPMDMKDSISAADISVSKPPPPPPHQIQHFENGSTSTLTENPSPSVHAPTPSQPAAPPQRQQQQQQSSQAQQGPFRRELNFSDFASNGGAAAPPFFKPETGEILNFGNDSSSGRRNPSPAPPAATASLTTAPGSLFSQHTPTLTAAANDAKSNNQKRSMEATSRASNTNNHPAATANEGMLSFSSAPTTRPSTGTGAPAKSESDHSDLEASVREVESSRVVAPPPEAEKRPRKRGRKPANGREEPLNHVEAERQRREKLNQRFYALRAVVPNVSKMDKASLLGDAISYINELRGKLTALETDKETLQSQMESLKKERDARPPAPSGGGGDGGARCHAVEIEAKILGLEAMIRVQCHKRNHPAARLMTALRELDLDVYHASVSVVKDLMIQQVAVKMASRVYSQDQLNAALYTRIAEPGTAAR

These are yes or no findings as the source states them, for the method shown. Binding seen in cells or lysates may run through a third protein. Some binding calls cover weakened binding; strength is not graded here. Sequences can lack the tags named with a protein.

The target in assay [1] is T1, SLR1 (expressed in N. benthamiana; tag not stated) (rice (Oryza sativa)) (UniProt Q7G7J6).
T1 sequence: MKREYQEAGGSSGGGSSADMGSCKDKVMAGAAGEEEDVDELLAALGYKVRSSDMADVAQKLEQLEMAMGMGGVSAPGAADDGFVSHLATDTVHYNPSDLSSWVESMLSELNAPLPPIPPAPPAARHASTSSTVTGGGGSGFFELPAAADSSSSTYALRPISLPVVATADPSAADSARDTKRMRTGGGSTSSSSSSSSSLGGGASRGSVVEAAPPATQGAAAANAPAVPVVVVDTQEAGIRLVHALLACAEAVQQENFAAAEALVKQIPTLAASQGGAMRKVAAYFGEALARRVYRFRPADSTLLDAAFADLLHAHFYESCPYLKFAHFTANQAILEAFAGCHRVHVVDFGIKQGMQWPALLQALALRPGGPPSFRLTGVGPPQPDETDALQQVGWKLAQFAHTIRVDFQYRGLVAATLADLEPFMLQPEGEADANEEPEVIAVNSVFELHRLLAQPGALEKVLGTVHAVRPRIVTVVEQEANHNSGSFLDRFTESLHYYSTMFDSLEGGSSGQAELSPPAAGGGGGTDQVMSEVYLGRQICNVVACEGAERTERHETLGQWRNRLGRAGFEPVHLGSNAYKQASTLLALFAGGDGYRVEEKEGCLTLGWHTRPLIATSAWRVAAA
The assay can be described thus: co-IP; N. benthamiana leaves co-expressing the tagged proteins, harvested 48 hpi; IP buffer 25 mM Tris-HCl pH 7.4, 150 mM NaCl, 1% NP-40; Flag-trap beads 2 h at 4 °C; immunoblot.

The target of assay [2] is T2, SLR1-cYFP (rice (Oryza sativa)) (UniProt Q7G7J6).
T2 sequence: T1 sequence
Nature of the assay: split reporter; competitive BiFC in N. benthamiana leaves; components mixed in equal volumes, 50 µM MG132; with or without a third protein.

The target in assay [3] is T3, OsGID1-flag (rice (Oryza sativa)) (UniProt Q6L545).
T3 sequence: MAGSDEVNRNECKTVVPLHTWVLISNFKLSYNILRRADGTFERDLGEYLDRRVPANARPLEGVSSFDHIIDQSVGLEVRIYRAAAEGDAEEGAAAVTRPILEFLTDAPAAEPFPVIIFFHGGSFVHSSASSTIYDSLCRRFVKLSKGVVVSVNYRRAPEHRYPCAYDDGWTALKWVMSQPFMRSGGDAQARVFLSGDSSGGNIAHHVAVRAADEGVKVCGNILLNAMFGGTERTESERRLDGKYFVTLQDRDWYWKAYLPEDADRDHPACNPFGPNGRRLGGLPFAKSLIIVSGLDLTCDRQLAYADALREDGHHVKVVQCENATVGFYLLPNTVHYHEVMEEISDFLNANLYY
Nature of the assay: co-IP; competitive co-IP in N. benthamiana leaves; a third protein (SP8, P2 or SLR1) co-infiltrated at OD600 0.5 or 1.0; 50 µM MG132 at 24 hpi (Fig. 3e, f, 6a-d); Flag-tag or HA-tag paramagnetic beads.

For the molecule “OsMYC2 (co-IP construct; tag not stated) (from UniProt Q336P5 1-699)”, in assay [1], the binding entry is “binds”.

B1: MBP-His-OsGID1 (receptor)
chain: T3 sequence
notes: OsGID1, the rice gibberellin receptor GIBBERELLIN … DWARF1; also called PET32a-MBP-His-OsGID1; source: E. coli Rosetta (DE3), purified (Ni-NTA His-trap column)
Turning to B1, in assay [2], the binding entry is listed as “binds”.

B2: SLR1-GFP (protein, UniProt Q7G7J6 1-625)
chain: T1 sequence
Regarding B2, the binding result in assay [3] was “binds”.

B3: SLR1-myc (protein, UniProt Q7G7J6 1-625)
chain: T1 sequence
On to B3, for which the binding result in assay [3] was “binds”.
